Assay results taken from paper PMC12867014, “Angiopoietin-like 3 monomers are abundant in human plasma but are unable to inhibit endothelial lipase” (JCI Insight, 2025).
These are yes or no findings as the source states them, for the method shown. Where a sequence is shown, tags or fusion partners need not be part of it.

Biological target: human ANGPTL3 L124A (His-tagged) (human) (UniProt Q9Y5C1)
Test: SEC; Superdex 200 of pooled human serum, alone or spiked with conditioned media of recombinant wild-type or L124A human ANGPTL3 (L124A also run without serum); total ANGPTL3, trimeric ANGPTL3 and ANGPTL3/8 complexes in the fractions measured by dedicated immunoassays

binding: no binding
B1: human ANGPTL3 L124A (His-tagged) (protein, UniProt Q9Y5C1 17-460)
chain: SRIDQDNSSFDSLSPEPKSRFAMLDDVKILANGLLQLGHGLKDFVHKTKGQINDIFQKLNIFDQSFYDLSLQTSEIKEEEKELRRTTYKLQVKNEEVKNMSLELNSKAESLLEEKILLQQKVKYLEEQLTNLIQNQPETPEHPEVTSLKTFVEKQDNSIKDLLQTVEDQYKQLNQQHSQIKEIENQLRRTSIQEPTEISLSSKPRAPRTTPFLQLNEIRNVKHDGIPAECTTIYNRGEHTSGMYAIRPSNSQVFHVYCDVISGSPWTLIQHRIDGSQNFNETWENYKYGFGRLDGEFWLGLEKIYSIVKQSNYVLRIELEDWKDNKHYIEYSFYLGNHETNYTLHLVAITGNVPNAIPENKDLVFSTWDHKAKGHFNCPEGYSGGWWWHDECGENNLNGKYNKPRAKSKPERRRGLSWKSQNGRLYSIKSTKMLIHPTDSESFE
